Data as given in PMC11982199.
No constants are given. Whether binding was seen depends on the method and setting. Binding seen in cells or lysates may run through a third protein. Some entries that bind do so weakly or less than the wild type. For part of these data: Sequences can lack the tags named with a protein.

The chains behind the UniProt entries cited, without tags or fusion partners.
UniProt Q9QZL0: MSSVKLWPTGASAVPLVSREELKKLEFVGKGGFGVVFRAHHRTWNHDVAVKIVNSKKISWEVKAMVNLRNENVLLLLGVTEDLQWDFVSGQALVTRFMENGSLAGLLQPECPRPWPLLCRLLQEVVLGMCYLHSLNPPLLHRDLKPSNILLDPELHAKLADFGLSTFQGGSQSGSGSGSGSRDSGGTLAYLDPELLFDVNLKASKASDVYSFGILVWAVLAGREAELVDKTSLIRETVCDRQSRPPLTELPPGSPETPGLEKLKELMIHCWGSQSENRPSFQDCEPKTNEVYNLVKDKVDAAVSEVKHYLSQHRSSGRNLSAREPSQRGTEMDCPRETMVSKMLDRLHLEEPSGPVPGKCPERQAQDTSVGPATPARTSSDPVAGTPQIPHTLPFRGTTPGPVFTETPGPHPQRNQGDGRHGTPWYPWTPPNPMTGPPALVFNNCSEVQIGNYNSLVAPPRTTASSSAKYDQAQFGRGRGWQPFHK

Experiments:
FLAG-OTUB2 = target: T1, FLAG-OTUB2 (UniProt Q9CQX0); experiment: co-IP; FLAG-OTUB2 and GFP-RIPK3 plasmids co-transfected into NIH/3T3 cells for 24 h; immunoprecipitation from whole-cell lysates with anti-GFP (Fig. 4G) or anti-FLAG (Fig. 4H) antibodies, Protein A + G magnetic beads, washed 5 times with ice-cold PBS, Western blot
T1 sequence: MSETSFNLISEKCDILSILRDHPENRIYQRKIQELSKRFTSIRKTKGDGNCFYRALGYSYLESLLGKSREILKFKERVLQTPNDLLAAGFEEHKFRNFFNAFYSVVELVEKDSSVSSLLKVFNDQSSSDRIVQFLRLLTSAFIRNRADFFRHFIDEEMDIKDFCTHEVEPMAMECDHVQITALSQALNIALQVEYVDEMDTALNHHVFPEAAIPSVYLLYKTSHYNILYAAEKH

[1] = target: receptor-interacting protein kinase 3 (RIPK3), endogenous (mouse (endogenous in HT22)) (UniProt Q9QZL0); experiment: co-IP; endogenous proteins; immunocomplexes harvested from HT22 whole-cell lysates with antibody overnight at 4 °C and Protein A + G magnetic beads, washed 5 times with ice-cold PBS, Western blot
GFP-RIPK3 = GFP-RIPK3 (UniProt Q9QZL0); experiment: co-IP; FLAG-OTUB2 and GFP-RIPK3 plasmids co-transfected into NIH/3T3 cells for 24 h; immunoprecipitation from whole-cell lysates with anti-GFP (Fig. 4G) or anti-FLAG (Fig. 4H) antibodies, Protein A + G magnetic beads, washed 5 times with ice-cold PBS, Western blot

Q: Which binding (FLAG-OTUB2) does the source give for “GFP-RIPK3 (from UniProt Q9QZL0 1-486) (enzyme)” here?
A: The binding was “binds”.

B1: Otubain-2 (OTUB2), endogenous (enzyme, UniProt Q9CQX0 1-234)
chain: T1 sequence
Q: With B1 as the molecule, how does the binding [1] read?
A: Its binding is “binds”.

B2: FLAG-OTUB2 (enzyme, UniProt Q9CQX0 1-234)
chain: T1 sequence
Q: Which binding (GFP-RIPK3) does the source give for B2 here?
A: Its binding is “binds”.
